# Where a name gives a salt, the structure may show the parent alone. The list shows a part of the results. Single values are uncertain here, since repeats match poorly.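 A first-round screen of about ten thousand compounds sought those raising reporter output, using human embryonic kidney cells briefly transfected with a plasmid carrying a Renilla luciferase gene driven by the HSV-TK promoter.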
# Tested on: HEK 293FT
# Assay: log relative Renilla luciferase luminescence (reporter expression vs reference, reference not stated) (log (base not stated)); higher = higher recombinant reporter expression
# Settings: 10 µM; time after transfection 48 h
row,SMILES,log
1,C#C[C@]1(OC(C)=O)CC[C@H]2[C@@H]3CCC4=CC(=NO)CC[C@@H]4[C@H]3CC[C@@]21CC (mixture of isomers) [norgestimate],0.0336
2,O=C1c2ccccc2C(=O)C1c1ccc(Cl)cc1 [chlorindione],0.0913
3,COc1ccc2cc([C@H](C)CO)ccc2c1 [naproxol],0.168
4,CC(=O)O[C@]1(C(C)=O)CC[C@H]2[C@@H]3C=C(Cl)C4=CC(=O)[C@@H]5C[C@@H]5[C@]4(C)[C@H]3CC[C@@]21C [cyproterone acetate],-0.0934
5,Clc1ccc(CO/N=C(\Cn2ccnc2)c2ccc(Cl)cc2Cl)c(Cl)c1 [oxiconazole nitrate],0.0176
6,CCCCC(CC)CCC(CC(C)C)OS(=O)(=O)O (stereo not given) [sodium tetradecyl sulfate],0.0888
7,O=C(O)COCCN1CCN(C(c2ccccc2)c2ccc(Cl)cc2)CC1 (stereo not given) [cetirizine hydrochloride],0.203
8,N[C@@H]1CONC1=O [cycloserine (d)],-0.118
9,CCCCCCCCCCCCCCCC(=O)OC[C@@H](NC(=O)C(Cl)Cl)[C@H](O)c1ccc([N+](=O)[O-])cc1 [chloramphenicol palmitate],-0.262
10,COc1cc2nc(N(C)CCCNC(=O)C3CCCO3)nc(N)c2cc1OC (stereo not given) [alfuzosin hydrochloride],0.147
11,Clc1ccc(Cn2c(CN3CCCC3)nc3ccccc32)cc1 [clemizole hydrochloride],0.0025
12,O=C(O)/C=C/c1ccc(O)c(O)c1 [caffeic acid],0.0557
13,CC(=O)Oc1ccccc1C(=O)O [aspirin],0.0629
14,O=c1cc(-c2ccccc2)oc2cc(O)ccc12 [7-hydroxyflavone],0.144
15,CC1=C(/C=C/C(C)=C/C=C/C(C)=C/C=C/C=C(C)/C=C/C=C(C)/C=C/C2=C(C)C(=O)[C@@H](O)CC2(C)C)C(C)(C)C[C@H](O)C1=O [astaxanthin],0.274
16,N=C(N)NS(=O)(=O)c1ccc(N)cc1 [sulfaguanidine],0.0391
17,NC[C@@H]1CC[C@@H](N)[C@@H](O[C@H]2[C@H](O)[C@@H](O[C@H]3O[C@H](CO)[C@@H](O)[C@H](N)[C@H]3O)[C@H](N)C[C@@H]2N)O1 [dibekacin],0.0113
18,CC1=C(/C=C/C(C)=C/C=C/C(C)=C/C(=O)O)C(C)(C)CCC1 [tretinoin],-0.0233
19,CCc1c(C)[nH]c2c1C(=O)C(CN1CCOCC1)CC2 (stereo not given) [molindone hydrochloride],-0.198
20,COc1cc(C(=O)NCCCCCC(=O)O)cc(OC)c1OC [capobenic acid],0.129
21,CC1=C(C(=O)O)N2C(=O)[C@@H](NC(=O)[C@H](N)C3=CCC=CC3)[C@H]2SC1 [cephradine],-0.083
22,N[C@@H](CCC(=O)N[C@@H](CS)C(=O)NCC(=O)O)C(=O)O [glutathione],-0.0407
23,CC1(C)[C@H](C(=O)O)N2C(=O)C[C@H]2S1(=O)=O [sulbactam],-0.0849
24,COc1cc2c3cc1Oc1cc(ccc1O)C[C@@H]1c4c(cc(OC)c(O)c4Oc4ccc(cc4)C[C@@H]3N(C)CC2)CC[N+]1(C)C [tubocurarine chloride],-1.24

# Looked up above:
# log with `CC(=O)Oc1ccccc1C(=O)O` [aspirin] is entered as 0.0629
# log with `O=C(O)/C=C/c1ccc(O)c(O)c1` [caffeic acid] is entered as 0.0557
# log with `CCCCCCCCCCCCCCCC(=O)OC[C@@H](NC(=O)C(Cl)Cl)[C@H](O)c1ccc([N+](=O)[O-])cc1` [chloramphenicol palmitate] is entered as -0.262
# log with `NC[C@@H]1CC[C@@H](N)[C@@H](O[C@H]2[C@H](O)[C@@H](O[C@H]3O[C@H](CO)[C@@H](O)[C@H](N)[C@H]3O)[C@H](N)C[C@@H]2N)O1` [dibekacin] is entered as 0.0113
# log with `CC(=O)O[C@]1(C(C)=O)CC[C@H]2[C@@H]3C=C(Cl)C4=CC(=O)[C@@H]5C[C@@H]5[C@]4(C)[C@H]3CC[C@@]21C` [cyproterone acetate] is entered as -0.0934
# log with `CC1=C(/C=C/C(C)=C/C=C/C(C)=C/C(=O)O)C(C)(C)CCC1` [tretinoin] is entered as -0.0233

# Following part.

row,SMILES,log
1,Cc1ncc(CO)c(CO)c1O [pyridoxine],0.115
2,C[C@]12CC[C@@H]3c4ccc(O)cc4CC[C@H]3[C@@H]1CC[C@@H]2O [estradiol],-0.175
3,CCCN(CCC)S(=O)(=O)c1ccc(C(=O)O)cc1 [probenecid],-0.118
4,CCN(CC)C(=O)c1cccc(C)c1 [diethyltoluamide],-0.102
5,CCN(CC)C(=O)c1cccnc1 [nikethamide],0.0147
6,COc1ccc(-c2coc3c(O)c(OC)ccc3c2=O)cc1 [retusin 7-methyl ether],0.127
7,COc1ccc2[nH]c([S+]([O-])Cc3ncc(C)c(OC)c3C)nc2n1 (stereo not given) [tenatoprazole],-0.0246
8,O=C(O)CCCCC(=O)O [adipic acid],-0.00497
9,CN(C)CCOC(c1ccccc1)c1ccccc1 [diphenhydramine hydrochloride],-0.041
10,CC(=O)[C@H]1CC[C@H]2[C@@H]3CCC4=CC(=O)CC[C@]4(C)[C@H]3CC[C@]12C [progesterone],0.0103
11,CN(C)CC/C=C1/c2ccccc2Sc2ccc(Cl)cc21 [chlorprothixene hydrochloride],-0.118
12,CC(=O)O[C@H]1C[C@@H](OC(C)=O)C(C)(C)[C@@H]2C[C@@H](OC(C)=O)[C@]3(C)[C@H](CC[C@@]4(C)[C@H](c5ccoc5)OC(=O)[C@H]5O[C@@]534)[C@@]12C [khivorin],0.187
13,N[C@@H](Cc1cc(I)c(Oc2cc(I)c(O)c(I)c2)c(I)c1)C(=O)O [levothyroxine],-0.0702
14,Cc1cc(=O)oc2cc(O)c(O)cc12 [4-methylesculetin],0.0324
15,COc1cc(O)c(C(C)=O)c(O)c1 [4-o-methylphloracetophenone],0.143
16,N=C(N)NC(=O)Cc1c(Cl)cccc1Cl [guanfacine hydrochloride],0.187
17,CCCCCCCCCC(=O)N[C@@H](Cc1c[nH]c2ccccc12)C(=O)N[C@@H](CC(N)=O)C(=O)N[C@@H](CC(=O)O)C(=O)N[C@@H]1C(=O)NCC(=O)N[C@@H](CCCN)C(=O)N[C@@H](CC(=O)O)C(=O)N[C@H](C)C(=O)N[C@@H](CC(=O)O)C(=O)NCC(=O)N[C@H](CO)C(=O)N[C@@H]([C@H](C)CC(=O)O)C(=O)N[C@@H](CC(=O)c2ccccc2N)C(=O)O[C@@H]1C [daptomycin (5 millimolar/dmso)],0.0843
18,COc1cc(O)c(C(=O)c2ccccc2)cc1S(=O)(=O)O [sulisobenzone],-0.0557
19,O=C(O)CCCCCCCCCCCC[C@@H]1C=CCC1 [chaulmoogric acid],0.134
20,"COc1cc(OC)c2c(=O)c(O)c(-c3ccc(OC)c(OC)c3)oc2c1 [quercetin 5,7,3',4'-tetramethyl ether]",-0.0745
21,CNCc1ccccc1 [n-methylbenzylamine hydrochloride],-0.167
22,CN1C(=O)CC(c2ccccc2)C1=O (stereo not given) [phensuccimide],-0.0467
23,CC(O)C(=O)O.N (stereo not given) [ammonium lactate],-0.0307
24,CN(C)CCN(Cc1ccccc1)c1ccccn1 [tripelennamine citrate],-0.244

row,SMILES,log
1,C=CC1=C(C)c2cc3[nH]c(cc4nc(cc5[nH]c(cc1n2)c(C)c5CCC(=O)O)C(CCC(=O)O)=C4C)c(C)c3C=C [protoporphyrin ix],-0.208
2,CC(=O)O[C@@]12CO[C@@H]1C[C@H](O)[C@@]1(C)C(=O)[C@H](O)C3=C(C)[C@@H](OC(=O)[C@H](O)[C@@H](NC(=O)OC(C)(C)C)c4ccccc4)C[C@@](O)([C@@H](OC(=O)c4ccccc4)[C@H]21)C3(C)C [docetaxel],0.111
3,Nc1ncnc2c1ncn2[C@@H]1O[C@H](CO)[C@@H](O)[C@H]1O [adenosine],-0.0298
4,Clc1ccc(CSC(Cn2ccnc2)c2ccc(Cl)cc2Cl)cc1 (stereo not given) [sulconazole nitrate],-0.153
5,C[n+]1cc2c3c(ccc2c2ccc4cc5c(cc4c21)OCO5)OCO3 [sanguinarine sulfate],-0.162
6,"COc1ccc2c(c1)OCC(Cc1ccc(O)c(OC)c1)C2=O (stereo not given) [deoxysappanone b 7,3'-dimethyl ether]",0.0993
7,"COc1ccc2oc(-c3ccccc3OC)cc(=O)c2c1 [6,2'-dimethoxyflavone]",-0.0423
8,Fc1ccc(C(c2ccc(F)cc2)N2CCN(C/C=C/c3ccccc3)CC2)cc1 [flunarizine hydrochloride],0.14
9,CN1CCc2c(c3ccccc3n2Cc2ccccc2)C1 [mebhydrolin naphthalenesulfonate],0.0534
10,Cc1ccc(Nc2c(F)cccc2Cl)c(CC(=O)O)c1 [lumiracoxib],0.00335
11,CC(=O)Nc1cc2ccccc2oc1=O [3-acetamidocoumarin],0.0535
12,COc1ccc(/C=C/C(=O)O)cc1OC [dimethylcaffeic acid],-0.00986
13,CCCCC(=O)O[C@H]1CC[C@H]2[C@@H]3CCc4cc(O)ccc4[C@H]3CC[C@]12C [estradiol valerate],0.00551
14,N=C(N)c1ccc(OCCCCCOc2ccc(C(=N)N)cc2)cc1 [pentamidine isethionate],0.15
15,O=C(OC[C@H]1O[C@@H](OC(=O)c2cc(O)c(O)c(OC(=O)c3cc(O)c(O)c(O)c3)c2)[C@H](OC(=O)c2cc(O)c(O)c(OC(=O)c3cc(O)c(O)c(O)c3)c2)[C@@H](OC(=O)c2cc(O)c(O)c(OC(=O)c3cc(O)c(O)c(O)c3)c2)[C@@H]1OC(=O)c1cc(O)c(O)c(OC(=O)c2cc(O)c(O)c(O)c2)c1)c1cc(O)c(O)c(OC(=O)c2cc(O)c(O)c(O)c2)c1 [tannic acid],-0.394
16,OCCOCCN1CCN(C2=Nc3ccccc3Sc3ccccc32)CC1 [quetiapine],0.069
17,Cc1cc(O)c(C)c(O)c1C(=O)O [3-methylorsellinic acid],0.0874
18,COc1cccc2c1C(=O)c1c(O)c3c(c(O)c1C2=O)C[C@@](O)(C(=O)CO)C[C@@H]3O[C@H]1C[C@H](N)[C@H](O)[C@H](C)O1 [doxorubicin],-1.42
19,CC1(C)S[C@@H]2[C@H](NC(=O)[C@H](N)c3ccc(O)cc3)C(=O)N2[C@H]1C(=O)O [amoxicillin],-0.292
20,N=C(N)NC(=N)Nc1ccccc1 [1-phenylbiguanide hydrochloride],-0.182
21,Cc1ccc2c(Br)cc(Br)c(OC(=O)c3ccccc3)c2n1 [broxaldine],-0.282
22,CN[C@@H]1[C@H](O[C@H]2[C@H](O[C@H]3[C@H](O)[C@@H](O)[C@H](N=C(N)N)[C@@H](O)[C@@H]3N=C(N)N)O[C@@H](C)[C@]2(O)C=O)O[C@@H](CO)[C@H](O)[C@H]1O [streptomycin sulfate],-0.0561

# — the supplement of paper PMC7024190
